For some assays here: HELM strings list residues between dots; [ac] is acetyl, [am] amide, other brackets name non-standard units.
Tests used:
[1] = general procedure: peptide synthesis; Rink Amide AM resin; conditions: whole synthesis
peptide synthesis = conditions: whole synthesis

Substance | final HPLC purity [1] [%] | final HPLC purity (peptide synthesis) [%]
Biotin-NAPVSIPQ-NH2 | >97 | –
PEPTIDE1{N.A.V.S.I.Q.[am]}$$$$V2.0 | – | >98
